{
  "source": "PubChem BioAssay AID493014",
  "about": "(National Center for Advancing Translational Sciences (NCATS), 2011)",
  "note": "The whole screen tested about 340,000 compounds, of which about 170 (0.05%) were called active. Inconclusive means that the source gave no clear call. Such entries were picked first, then a sample of the others. The call rests on the fitted dose curve; in most records, active means well fitted inhibition curve with a large enough effect in the signal ratio, with a control signal flat (not every such curve was filed as active); inconclusive means small, poorly fitted or top-dose-only effect, or effect the other way, or a change in a side signal; inactive means flat fitted curve, though single readings scatter; the % refers to the signal ratio. Where the call is inconclusive, the potency comes from a doubtful curve fit.",
  "data": [
    {"assay": "qHTS Assay to Find Inhibitors of Chronic Active B-Cell Receptor Signaling; further: potency means the concentration at half of the fitted maximal effect;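 on activity change, negative = inhibition: plate controls were basal doxycycline-induced cells for no effect and cells given 10 µM MG132 for full effect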", "conditions": "ABC-DLBCL IkBa-CBG/CBR reporter, luminescence ratio (green luciferase fused to IkBa over red control in TMD8 lymphoma cells), 4 h; activity change, negative = inhibition: at 46.1 µM (top of the series) unless noted", "summary_of_the_method": "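TMD8 human ABC-DLBCL cells with doxycycline-inducible IκBα–green luciferase fusion and unfused red luciferase, in 0.5% FBS medium; compounds up to 46 uM, 4 h at 37C. Green/red luminescence ratio, filter-overlap corrected, fitted to concentration-response curves.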", "values": [
      {"molecule": "CC(=O)c1ccc(-c2ccc(C(=O)NCC(c3ccc(F)cc3)N3CCOCC3)o2)cc1", "note": "(configuration not stated)", "activity change, negative = inhibition": "inactive: -16%"},
      {"molecule": "CCOc1ccc2nc(SCc3ccc(F)cc3)sc2c1", "activity change, negative = inhibition": "inconclusive: 12.9%"},
      {"molecule": "COc1ccc(S(=O)(=O)n2nc(OC(=O)c3ccccc3Br)cc2N)cc1", "Potency": "inconclusive: 20 µM [falling, single point]"},
      {"molecule": "C=CCn1c(SCC(=O)Nc2ccccc2C)nnc1-c1ccncc1", "Potency": "inconclusive: 29.1 µM [falling, partial curve, poor fit]"},
      {"molecule": "O=C(CCCSc1nc2sc3c(c2c(=O)[nH]1)CCC3)NCCO", "Potency": "inconclusive: 31.6 µM [falling, single point]"},
      {"molecule": "CCN(CC)S(=O)(=O)c1ccc(N2CCCC2)c(C(=O)OCC(=O)Nc2cc(C)on2)c1", "activity change, negative = inhibition": "inconclusive: -1.57%"},
      {"molecule": "CC(=O)c1ccc(N2CCN(C(=O)c3cccs3)CC2)c(F)c1", "activity change, negative = inhibition": "inactive: -1.78%"},
      {"molecule": "Cc1ccc2[nH]c(=O)c(CN(Cc3ccco3)S(=O)(=O)c3c(C)ccc4nsnc34)cc2c1", "activity change, negative = inhibition": "inconclusive: 8.47%"},
      {"molecule": "CCOC(=O)C1=C(c2ccccc2)NC(=O)NC1c1ccsc1", "note": "(configuration not stated)", "activity change, negative = inhibition": "inconclusive: 12%"},
      {"molecule": "COc1ccc(/C=N/NC2=NS(=O)(=O)c3ccccc32)cc1OC", "activity change, negative = inhibition": "inconclusive: 2.71%"},
      {"molecule": "CSc1ccc(-c2nc(CN3CCCCC3c3cccnc3)c(C)o2)cc1", "note": "(configuration not stated)", "Potency": "inconclusive: 3.98 µM [rising, full curve]"},
      {"molecule": "CC1=CC(C)(C)Nc2ccc(OC(=O)CN3C(=O)c4ccccc4C3=O)cc21", "Potency": "inconclusive: 4.61 µM [falling, partial curve, poor fit]"},
      {"molecule": "O=C(CCNC(=O)c1ccc([N+](=O)[O-])cc1)Nc1nc2ccccc2[nH]1", "activity change, negative = inhibition": "inconclusive: 4.09%"},
      {"molecule": "O=C(COC(=O)c1cncc(Br)c1)NCC12CC3CC(CC(C3)C1)C2", "activity change, negative = inhibition": "inactive: 2.29%"},
      {"molecule": "Cc1nc(SCc2ccc(C(=O)O)cc2)c2c(C)c(C)sc2n1", "activity change, negative = inhibition": "inconclusive: 13.1%"},
      {"molecule": "CC(C)(C)c1ccc(CN2N=C(/C=C/c3ccccc3)CCC2=O)cc1", "Potency": "inconclusive: 35.5 µM [rising, partial curve, poor fit]"},
      {"molecule": "O=C(NCc1ccco1)C1CC(c2cc(C(F)(F)F)cc(C(F)(F)F)c2)=NO1", "note": "(configuration not stated)", "activity change, negative = inhibition": "inconclusive: -28.6%"},
      {"molecule": "COC(=O)c1ccc(S(=O)(=O)NCc2ccco2)o1", "activity change, negative = inhibition": "inconclusive: -4.56%"},
      {"molecule": "CCOC(=O)c1cc2c(=O)n3cccc(C)c3nc2n(C)c1=N", "activity change, negative = inhibition": "inactive: 14.2%"},
      {"molecule": "O=C(COc1ccc2ccccc2c1)NC1=NCCS1", "activity change, negative = inhibition": "inconclusive: 3.71%"},
      {"molecule": "C(=N\\Nc1nc2ccccc2[nH]1)/c1cccs1", "Potency": "inconclusive: 35.5 µM [cytotoxic, single point]"},
      {"molecule": "CCOc1ccc(CN2CCNC(=O)C2CC(=O)NCCN2CCOC2=O)cc1", "note": "(configuration not stated)", "activity change, negative = inhibition": "inconclusive: -2.17%"}
    ]}
  ]
}
